Data published in the supplement of paper PMC10849652.
Some of the results follow.

By UniProt entry, the sequences of proteins in these tests, tags left out. Where a name states a change or a piece, a line headed by the entry shows the natural chain unless it says otherwise.
UniProt Q86UP3: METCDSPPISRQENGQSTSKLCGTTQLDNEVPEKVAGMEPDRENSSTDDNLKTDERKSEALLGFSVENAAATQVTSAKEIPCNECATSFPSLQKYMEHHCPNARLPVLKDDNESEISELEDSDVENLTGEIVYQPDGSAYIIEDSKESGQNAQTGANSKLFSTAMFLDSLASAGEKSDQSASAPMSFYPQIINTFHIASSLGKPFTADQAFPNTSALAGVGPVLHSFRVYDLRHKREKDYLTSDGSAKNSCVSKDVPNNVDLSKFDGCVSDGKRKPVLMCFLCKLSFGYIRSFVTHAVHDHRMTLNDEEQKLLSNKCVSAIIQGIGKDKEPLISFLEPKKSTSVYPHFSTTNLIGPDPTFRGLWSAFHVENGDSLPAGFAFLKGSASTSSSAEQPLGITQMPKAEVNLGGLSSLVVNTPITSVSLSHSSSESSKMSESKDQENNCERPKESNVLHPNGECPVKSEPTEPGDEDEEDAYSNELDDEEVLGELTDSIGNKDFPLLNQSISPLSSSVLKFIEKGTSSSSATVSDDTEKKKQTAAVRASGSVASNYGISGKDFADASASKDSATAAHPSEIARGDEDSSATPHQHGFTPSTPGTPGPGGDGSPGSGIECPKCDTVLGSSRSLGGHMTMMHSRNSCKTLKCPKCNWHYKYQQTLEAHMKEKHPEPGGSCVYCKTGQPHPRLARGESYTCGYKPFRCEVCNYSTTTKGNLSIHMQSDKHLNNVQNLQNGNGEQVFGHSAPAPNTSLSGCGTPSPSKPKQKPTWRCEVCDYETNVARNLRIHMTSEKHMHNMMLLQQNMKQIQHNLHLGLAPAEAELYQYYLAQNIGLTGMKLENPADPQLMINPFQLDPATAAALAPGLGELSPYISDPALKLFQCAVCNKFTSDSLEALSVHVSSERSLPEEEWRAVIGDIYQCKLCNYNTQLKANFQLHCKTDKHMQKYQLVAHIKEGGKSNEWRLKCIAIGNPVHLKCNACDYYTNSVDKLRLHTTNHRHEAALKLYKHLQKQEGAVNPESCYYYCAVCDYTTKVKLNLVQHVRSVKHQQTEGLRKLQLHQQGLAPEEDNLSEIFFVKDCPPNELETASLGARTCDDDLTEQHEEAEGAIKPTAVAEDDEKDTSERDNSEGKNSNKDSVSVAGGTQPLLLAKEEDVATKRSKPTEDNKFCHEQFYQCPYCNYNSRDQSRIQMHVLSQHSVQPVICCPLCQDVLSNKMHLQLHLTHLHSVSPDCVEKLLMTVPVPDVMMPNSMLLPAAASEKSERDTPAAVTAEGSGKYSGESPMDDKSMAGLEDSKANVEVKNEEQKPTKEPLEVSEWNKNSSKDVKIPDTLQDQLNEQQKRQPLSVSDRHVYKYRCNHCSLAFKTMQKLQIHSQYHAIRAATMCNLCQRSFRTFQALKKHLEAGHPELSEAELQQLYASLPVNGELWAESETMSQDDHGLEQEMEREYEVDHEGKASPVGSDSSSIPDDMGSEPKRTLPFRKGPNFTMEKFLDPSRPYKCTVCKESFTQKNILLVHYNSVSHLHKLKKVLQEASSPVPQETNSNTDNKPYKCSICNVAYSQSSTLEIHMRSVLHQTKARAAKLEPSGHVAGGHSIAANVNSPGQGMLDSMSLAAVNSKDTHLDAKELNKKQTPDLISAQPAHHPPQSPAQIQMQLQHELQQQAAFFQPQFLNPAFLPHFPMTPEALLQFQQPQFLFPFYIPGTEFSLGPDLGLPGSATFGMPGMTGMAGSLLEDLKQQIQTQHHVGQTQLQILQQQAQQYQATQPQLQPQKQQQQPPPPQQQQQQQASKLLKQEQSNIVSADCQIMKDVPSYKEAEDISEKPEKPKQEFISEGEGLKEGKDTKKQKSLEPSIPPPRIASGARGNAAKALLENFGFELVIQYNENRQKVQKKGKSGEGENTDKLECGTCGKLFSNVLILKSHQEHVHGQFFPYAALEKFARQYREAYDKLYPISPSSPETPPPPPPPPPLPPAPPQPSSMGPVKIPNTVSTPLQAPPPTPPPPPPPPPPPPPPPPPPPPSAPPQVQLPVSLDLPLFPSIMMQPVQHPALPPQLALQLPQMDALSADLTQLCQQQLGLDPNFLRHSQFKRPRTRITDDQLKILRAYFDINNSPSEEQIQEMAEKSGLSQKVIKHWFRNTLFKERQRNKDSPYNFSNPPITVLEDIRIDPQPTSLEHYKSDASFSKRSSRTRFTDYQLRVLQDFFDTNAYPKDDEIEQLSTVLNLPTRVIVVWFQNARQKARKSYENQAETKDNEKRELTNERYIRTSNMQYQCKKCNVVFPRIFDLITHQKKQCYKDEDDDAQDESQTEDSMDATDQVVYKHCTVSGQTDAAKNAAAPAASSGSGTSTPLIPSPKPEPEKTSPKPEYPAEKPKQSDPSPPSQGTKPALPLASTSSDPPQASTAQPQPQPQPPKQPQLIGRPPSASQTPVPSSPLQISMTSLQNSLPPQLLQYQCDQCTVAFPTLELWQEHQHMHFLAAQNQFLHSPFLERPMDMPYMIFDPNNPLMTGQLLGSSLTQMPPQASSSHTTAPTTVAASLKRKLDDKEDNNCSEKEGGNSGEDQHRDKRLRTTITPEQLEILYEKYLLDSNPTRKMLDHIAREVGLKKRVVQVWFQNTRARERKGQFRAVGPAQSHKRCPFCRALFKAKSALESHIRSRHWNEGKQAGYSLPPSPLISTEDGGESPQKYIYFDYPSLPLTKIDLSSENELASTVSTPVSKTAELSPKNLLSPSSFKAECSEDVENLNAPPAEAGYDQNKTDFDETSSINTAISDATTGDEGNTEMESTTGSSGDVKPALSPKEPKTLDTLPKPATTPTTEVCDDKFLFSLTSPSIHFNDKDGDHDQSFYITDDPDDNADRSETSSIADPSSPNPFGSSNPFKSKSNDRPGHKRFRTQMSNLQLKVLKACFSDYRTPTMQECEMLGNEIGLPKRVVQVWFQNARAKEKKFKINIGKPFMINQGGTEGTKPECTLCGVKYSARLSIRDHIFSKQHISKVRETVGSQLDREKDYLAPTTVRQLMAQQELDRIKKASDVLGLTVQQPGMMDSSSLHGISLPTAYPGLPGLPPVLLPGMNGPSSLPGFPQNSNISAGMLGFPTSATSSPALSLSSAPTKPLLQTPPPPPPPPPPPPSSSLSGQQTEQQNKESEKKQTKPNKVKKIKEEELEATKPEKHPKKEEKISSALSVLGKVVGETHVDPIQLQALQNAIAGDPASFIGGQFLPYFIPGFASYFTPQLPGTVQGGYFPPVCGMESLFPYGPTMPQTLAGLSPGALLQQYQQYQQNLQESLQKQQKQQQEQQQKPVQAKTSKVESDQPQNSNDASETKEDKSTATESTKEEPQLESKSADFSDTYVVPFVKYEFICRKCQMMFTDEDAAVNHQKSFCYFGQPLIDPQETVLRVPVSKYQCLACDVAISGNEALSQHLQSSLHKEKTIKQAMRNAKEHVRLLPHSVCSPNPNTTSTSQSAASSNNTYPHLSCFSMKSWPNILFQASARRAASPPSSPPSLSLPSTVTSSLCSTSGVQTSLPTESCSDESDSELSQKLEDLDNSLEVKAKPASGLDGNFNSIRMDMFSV
UniProt P23025: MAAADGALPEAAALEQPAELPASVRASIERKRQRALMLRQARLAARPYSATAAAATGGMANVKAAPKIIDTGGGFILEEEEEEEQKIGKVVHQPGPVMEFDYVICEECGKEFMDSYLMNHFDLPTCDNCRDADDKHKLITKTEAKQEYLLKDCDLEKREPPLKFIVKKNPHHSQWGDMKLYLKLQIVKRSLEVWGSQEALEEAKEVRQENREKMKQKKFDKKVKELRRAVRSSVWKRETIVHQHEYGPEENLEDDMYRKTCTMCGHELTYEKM
UniProt P52739: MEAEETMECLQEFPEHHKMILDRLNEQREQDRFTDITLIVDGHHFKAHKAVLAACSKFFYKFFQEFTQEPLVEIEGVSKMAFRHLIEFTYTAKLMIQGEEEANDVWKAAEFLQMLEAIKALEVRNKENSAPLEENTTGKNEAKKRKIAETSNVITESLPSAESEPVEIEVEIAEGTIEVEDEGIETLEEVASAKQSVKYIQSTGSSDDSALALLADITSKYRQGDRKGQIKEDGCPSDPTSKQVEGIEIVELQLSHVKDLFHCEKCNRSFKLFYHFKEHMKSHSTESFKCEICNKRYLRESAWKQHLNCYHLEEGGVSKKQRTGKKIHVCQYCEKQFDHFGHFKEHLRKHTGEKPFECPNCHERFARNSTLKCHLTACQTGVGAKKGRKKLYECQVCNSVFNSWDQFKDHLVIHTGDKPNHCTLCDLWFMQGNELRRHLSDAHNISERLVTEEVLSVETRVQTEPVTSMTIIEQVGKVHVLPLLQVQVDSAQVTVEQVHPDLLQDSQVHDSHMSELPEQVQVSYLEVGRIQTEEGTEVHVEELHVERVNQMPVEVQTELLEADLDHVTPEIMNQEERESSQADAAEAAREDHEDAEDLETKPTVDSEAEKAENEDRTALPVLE
UniProt P58557: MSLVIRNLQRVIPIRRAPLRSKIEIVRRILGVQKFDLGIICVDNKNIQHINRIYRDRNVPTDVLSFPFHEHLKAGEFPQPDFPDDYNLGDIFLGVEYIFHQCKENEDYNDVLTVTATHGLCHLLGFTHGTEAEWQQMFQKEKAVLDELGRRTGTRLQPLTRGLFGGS
UniProt O75152: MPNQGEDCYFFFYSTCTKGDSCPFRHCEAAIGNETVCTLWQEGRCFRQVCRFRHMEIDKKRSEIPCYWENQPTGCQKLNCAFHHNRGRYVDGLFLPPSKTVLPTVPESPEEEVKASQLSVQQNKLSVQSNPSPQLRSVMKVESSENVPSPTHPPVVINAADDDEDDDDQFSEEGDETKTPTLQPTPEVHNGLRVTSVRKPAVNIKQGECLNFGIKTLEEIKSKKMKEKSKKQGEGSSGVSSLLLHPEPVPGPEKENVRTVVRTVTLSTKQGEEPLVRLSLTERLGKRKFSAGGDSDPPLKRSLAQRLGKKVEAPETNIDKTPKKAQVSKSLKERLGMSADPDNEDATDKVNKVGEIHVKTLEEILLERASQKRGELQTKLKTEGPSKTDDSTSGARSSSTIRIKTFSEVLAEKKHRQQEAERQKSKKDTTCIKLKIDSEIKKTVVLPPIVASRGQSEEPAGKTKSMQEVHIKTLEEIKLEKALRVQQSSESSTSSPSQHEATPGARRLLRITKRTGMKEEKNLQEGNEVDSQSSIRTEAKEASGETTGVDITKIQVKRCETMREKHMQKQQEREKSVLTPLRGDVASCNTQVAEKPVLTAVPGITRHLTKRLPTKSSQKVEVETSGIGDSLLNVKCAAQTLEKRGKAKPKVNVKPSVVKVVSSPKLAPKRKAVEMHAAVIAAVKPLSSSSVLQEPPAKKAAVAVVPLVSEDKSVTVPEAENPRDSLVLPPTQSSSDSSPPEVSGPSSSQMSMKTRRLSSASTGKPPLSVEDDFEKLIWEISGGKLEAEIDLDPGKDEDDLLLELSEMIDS
UniProt Q9BWQ6: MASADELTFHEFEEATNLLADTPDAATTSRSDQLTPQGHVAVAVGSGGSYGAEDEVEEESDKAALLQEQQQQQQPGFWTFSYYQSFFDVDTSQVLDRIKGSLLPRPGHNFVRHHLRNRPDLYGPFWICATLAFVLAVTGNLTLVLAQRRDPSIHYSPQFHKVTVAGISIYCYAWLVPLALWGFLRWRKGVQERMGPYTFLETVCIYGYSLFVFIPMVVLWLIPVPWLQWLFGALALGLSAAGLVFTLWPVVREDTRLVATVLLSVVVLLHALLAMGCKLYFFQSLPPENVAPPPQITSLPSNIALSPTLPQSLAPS
UniProt P07947, whole entry, looked up: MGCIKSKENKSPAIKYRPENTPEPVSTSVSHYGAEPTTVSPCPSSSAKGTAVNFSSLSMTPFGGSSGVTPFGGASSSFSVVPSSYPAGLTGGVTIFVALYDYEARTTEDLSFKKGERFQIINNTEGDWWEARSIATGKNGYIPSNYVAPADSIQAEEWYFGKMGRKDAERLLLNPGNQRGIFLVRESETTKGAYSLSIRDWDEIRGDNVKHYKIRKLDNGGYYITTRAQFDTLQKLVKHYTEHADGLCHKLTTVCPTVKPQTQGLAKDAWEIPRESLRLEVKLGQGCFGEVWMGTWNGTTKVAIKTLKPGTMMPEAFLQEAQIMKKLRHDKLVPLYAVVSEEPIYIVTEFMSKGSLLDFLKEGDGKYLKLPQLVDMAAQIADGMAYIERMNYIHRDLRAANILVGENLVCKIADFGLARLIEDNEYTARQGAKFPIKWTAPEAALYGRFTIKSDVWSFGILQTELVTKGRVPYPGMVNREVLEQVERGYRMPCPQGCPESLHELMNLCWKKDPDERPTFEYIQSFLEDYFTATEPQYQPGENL
UniProt C9J5V9: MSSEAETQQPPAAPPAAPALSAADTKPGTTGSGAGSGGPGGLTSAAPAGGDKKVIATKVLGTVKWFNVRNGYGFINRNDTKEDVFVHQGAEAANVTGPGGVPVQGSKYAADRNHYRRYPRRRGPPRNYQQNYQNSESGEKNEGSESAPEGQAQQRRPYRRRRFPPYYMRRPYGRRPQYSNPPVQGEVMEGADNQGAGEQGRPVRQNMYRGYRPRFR

Columns and labels:
Experiment in all cases: log2 fold change, soluble protein after heating vs DMSO (PISA); higher = thermal stabilisation; K562 cells, 10 uM, 30 min; active = over 0.2 and 3.5 SD of the protein, either way, in both replicates (recomputed)
[1] = compound: NC(=O)c1cnc(N[C@@H]2CCCC[C@@H]2N)nc1Nc1cccc(-n2nccn2)c1
Method in brief: (§1)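 Values are thermal stability changes relative to control samples and are taken from duplicates. They are stated as log2 fold changes. Before quantification by TMTpro 16plex LC-MS/MS with equalised channel sums, K562 cells at 2×10^6 cells/mL were treated with 10 μM compound for 30 min, heated in aliquots for 3 min across 48°C-58°C, pooled, extracted in PBS with 0.5% NP-40 at 4°C, and centrifuged at 21,000xg for 90 min to give the soluble supernatant.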

[2] = compound: NC1(c2ccc(-c3nc4ccn5c(=O)[nH]nc5c4cc3-c3ccccc3)cc2)CCC1
Method in brief: as §1

[3] = compound: NCC(=O)Nc1ccc(-n2nc(C(F)(F)F)cc2-c2ccc3c(ccc4ccccc43)c2)cc1
Method in brief: as §1

[4] = compound: O=C(CCCCCCC(=O)Nc1ccccc1)NO [vorinostat]
Method in brief: as §1

[5] = compound: O=C(CCCCCCNC(=O)c1cnc(N(c2ccccc2)c2ccccc2Cl)nc1)NO [citarinostat]
Method in brief: as §1

[6] = compound: O=C(O)c1ccc2c(c1)nc(Nc1cccc(Cl)c1)c1ccncc12 [silmitasertib]
Method in brief: as §1

[7] = compound: c1cc(OCCN2CCCCC2)cc(-c2n[nH]c3ccc(-c4nnc[nH]4)cc23)c1
Method in brief: as §1

[8] = compound: NC(=O)Nc1cc(-c2cccc(F)c2)sc1C(=O)N[C@H]1CCCNC1
Method in brief: as §1

[9] = compound: Nc1ccccc1NC(=O)c1ccc(CNC(=O)OCc2cccnc2)cc1 [entinostat]
Method in brief: as §1

[10] = compound: O=C1NC(=O)C(c2cnc3ccccn23)=C1c1cn2c3c(cc(F)cc13)CN(C(=O)N1CCCCC1)CC2
Method in brief: as §1

Measured: log2 fold change

ZBTB3 (UniProt Q9H5J0)
inactive: [1] 0.097 | [2] 0.008 | [3] 0.061 | [4] -0.126 | [5] -0.111 | [6] -0.001 | [7] 0.084

ZFHX4 isoform 5 (UniProt Q86UP3)
inactive: [8] 0.125 | [9] 0.002

ZBTB34 (UniProt Q8NCN2)
inactive: [1] 0.154

ZBTB44 (UniProt Q8NCP5)
inactive: [1] 0.176

ZBTB14 (UniProt O43829)
inactive: [2] 0.124 | [6] 0.111

XPA (UniProt P23025)
inactive: [1] -0.196 | [3] -0.008 | [4] -0.195 | [10] -0.003

ZBTB33 (UniProt Q86T24)
inactive: [5] 0.151 | [7] 0.163

ZC3H13 (UniProt Q5T200)
inactive: [1] -0.253 | [2] 0.247 | [3] -0.269 | [4] -0.311 | [5] -0.376 | [6] 0.358 | [10] 0.154 | [7] 0

ZFYVE21 isoform 2 (UniProt Q9BQ24)
inactive: [1] -0.467 | [3] 0.025 | [4] 0.14 | [5] -0.057 | [7] -0.101

XRN1 (UniProt Q8IZH2)
inactive: [2] 0.473 | [3] 0.12 | [4] 0.062 | [5] 0 | [6] 0.149 | [10] 0.429 | [7] -0.052

ZNF131 (UniProt P52739)
inactive: [8] -0.13 | [9] -0.051 | [10] -0.098

XYLT2 (UniProt Q9H1B5)
inactive: [10] -0.195

ZDHHC6 (UniProt Q9H6R6)
inactive: [4] -0.108 | [5] 0.149 | [10] 0.089 | [7] -0.005

YBEY (UniProt P58557)
inactive: [4] -0.031

ZC3H11A (UniProt O75152)
inactive: [2] -0.09 | [3] -0.063 | [4] 0.2 | [5] 0.011 | [6] 0.078 | [7] -0.051

ZDHHC7 isoform 2 (UniProt Q9NXF8)
inactive: [1] -0.064 | [3] -0.056 | [4] 0.006 | [5] -0.037 | [10] -0.021 | [7] -0.191

YIPF2 (UniProt Q9BWQ6)
inactive: [10] -0.063

ZMYND8 isoform 19 (UniProt Q9ULU4)
inactive: [5] 0.095 | [10] -0.077 | [7] 0.138

ZFP36L2 (UniProt P47974)
inactive: [2] 0.018 | [6] -0.056

ZDHHC8 isoform 3 (UniProt Q9ULC8)
inactive: [10] 0.029

ZDHHC12 isoform 3 (UniProt Q96GR4)
inactive: [1] 0.027 | [3] 0.102

ZNF106 (UniProt Q9H2Y7)
inactive: [8] 0.124 | [3] -0.1 | [9] 0.092 | [5] -0.192 | [7] 0.028

ZC2HC1A (UniProt Q96GY0)
inactive: [1] 0.06 | [2] -0.047 | [3] 0.164 | [4] -0.244 | [5] -0.099 | [6] 0.125 | [10] 0.176 | [7] -0.135

ZFX isoform 3 (UniProt P17010)
inactive: [3] 0.167

YTHDC2 (UniProt Q9H6S0)
inactive: [1] 0.015 | [2] 0.214 | [4] 0.18 | [5] -0.126 | [6] 0.192 | [10] 0.305 | [7] -0.051

YES1 (UniProt P07947)
inactive: [1] -0.114 | [2] -0.012 | [3] 0.001 | [4] 0.069 | [5] 0.008 | [6] 0.004 | [10] 0.011 | [7] -0.235

XPC (UniProt Q01831)
inactive: [1] -0.015 | [3] 0.352 | [5] -0.178 | [10] 0.206 | [7] -0.004

ZDHHC9 (UniProt Q9Y397)
inactive: [4] -0.158

Quoted from the entries so far (three entries):
ZFX isoform 3 (UniProt P17010)
inactive: [3] 0.167

YTHDC2 (UniProt Q9H6S0)
inactive: [1] 0.015 | [2] 0.214 | [4] 0.18 | [5] -0.126 | [6] 0.192 | [10] 0.305 | [7] -0.051

YES1 (UniProt P07947)
inactive: [1] -0.114 | [2] -0.012 | [3] 0.001 | [4] 0.069 | [5] 0.008 | [6] 0.004 | [10] 0.011 | [7] -0.235

Going on with the list.

XYLB (UniProt O75191)
inactive: [10] -0.333

YIF1A (UniProt O95070)
inactive: [1] 0.07 | [2] 0.049 | [3] 0.118 | [4] -0.028 | [6] 0.055

YBX1 (UniProt C9J5V9)
inactive: [1] -0.031

XRCC2 (UniProt O43543)
inactive: [2] -0.047 | [6] 0.12 | [10] -0.029

YTHDF1 (UniProt Q9BYJ9)
inactive: [10] 0.343

YWHAZ (UniProt E7ESK7)
inactive: [1] -0.186 | [2] -0.206 | [5] -0.053 | [6] -0.065 | [10] -0.239 | [7] 0.095
